Test results as given in the supplement of paper PMC8426693.
The other results are listed elsewhere or left out.

Key:
Assay in all cases: NMR binding call after quantification (hit when 2 of 3 NMR criteria are met) (binary (1 = binding, 0 = not binding)); higher = binding
Conditions in all cases: RNA concentration 10 µM; fragment concentration 200 µM; 293 K
SARS-CoV-2 5_SL7 RNA = tested on: SARS-CoV-2 5_SL7 RNA
SARS-CoV-2 5_SL8 RNA = tested on: SARS-CoV-2 5_SL8 RNA
[1] = tested on: SARS-CoV-2 attenuator hairpin (att HP) RNA
[2] = tested on: SARS-CoV-2 frameshift pseudoknot (PK) RNA

Measured: NMR binding call

NC(=O)C1CCN(CCc2ccccc2)CC1
0: all assays above

CC(=O)Nc1ccc(NC(=O)CC(C)C)cc1
0: all assays above

CNC(=O)C1CNCCO1 (stereo not given)
0: all assays above

CC(C)C(=O)N1CCN(C(C)C)CC1
0: all assays above

CCC(=O)Nc1ccc2[nH]c(=O)[nH]c2c1
0: all assays above

NC(=O)c1ccc(NC(=O)C2CCCO2)cc1 (stereo not given)
0: all assays above

Three compounds from above, ordered by molecular weight, ascending.
CC(C)C(=O)N1CCN(C(C)C)CC1
0: all assays above

NC(=O)C1CCN(CCc2ccccc2)CC1
0: all assays above

CC(=O)Nc1ccc(NC(=O)CC(C)C)cc1
0: all assays above

Following part

CC1CCCCN1C(=O)c1cnccn1 (stereo not given)
0: all assays above

Cc1cccc(CN2CCOCC2)c1
0: all assays above

OCC1CN(Cc2ccccc2)CCO1 (stereo not given)
0: all assays above

COC(=O)C1CC(O)CN1C(=O)c1ccco1 (stereo not given)
0: all assays above

Cc1nn(C)c(C)c1CC(N)=O
0: all assays above

Cn1nnc(NC(=O)c2ccc(Cl)cc2)n1
0: all assays above

CC(CO)Nc1ncc(Cl)cc1F (stereo not given)
0: all assays above

Cc1ccc(CC(=O)Nc2nccs2)cc1
0: all assays above

CC1CCCN(C(=O)CO)C1 (stereo not given)
0: all assays above

CS(=O)(=O)NC1(C(=O)O)CCCCC1
0: all assays above

Cn1ccc(C(=O)Nc2cccc(C(=O)O)c2)n1
0: all assays above

CC(=O)Nc1ccc2[nH]c(=O)[nH]c2c1
0: all assays above

Cc1n[nH]c(C)c1-c1ccccc1N
0: all assays above

COCC(=O)Nc1cccc(NC(C)=O)c1
0: all assays above

CCc1nnc(NC(=O)C(F)(F)F)s1
0: all assays above

CC(C)NC(=O)N(C)C1CCS(=O)(=O)C1 (stereo not given)
0: all assays above

CC(C)c1nccn1CC(=O)O
0: all assays above

Cc1cc(C(=O)NCC2CCCO2)ns1 (stereo not given)
0: all assays above

N#CCCN1CCOCC1
0: all assays above
